The values below come from PMC12431657, “Discovery and mechanistic insights of dibenzoylmethane as a broad spectrum inhibitor of coronavirus” (PLOS Pathogens, 2025).

The test relates to HCoV-229E. The arrangement: species or system Huh-7; HTS, protection from HCoV-229E induced cell death, luminescent cell viability (CellCounting-Lite 2.0), inhibition rate. To be noted: 24 h post infection, 1 h compound pre-incubation, 10 µM, inhibitor.

Read-outs that look alike come from different tables or passages of the source. The whole screen tested about 3,300 compounds, of which about 95 (3%) showed an effect of 50% or more. Some of the results follow. Bridge positions count the residues as written; N and C are the ends. Square brackets hold non-standard residues; d marks the D form. Peptide text beside a SMILES is read from it. * marks the point of attachment. Ileψ(thiazoline)Cys = CC[C@H](C)[C@H](N)C1=N[C@H](C(=O)*)CS1; dOrn = NCCC[C@@H](N)C(=O)O

On to `CN(C)Cc1c[nH]c2ccccc12` [Gramine], for which the “229E Inhibition rate” value is reported as 0%. Same read-out and setting: the figure for `CC(=O)OC[C@@]12CC[C@@H](C)[C@](C)(CCC3=CC(=O)OC3)[C@H]1C[C@H](O)C=C2CO` [Blinin] is 9.8%. In the case of `O=C(O)c1ccccc1O` [Sodium Salicylate], the “229E Inhibition rate” value (229E Inhibition rate, 24 h) is on record as 19.4%.

For the compound `Oc1ccc(/C=C/c2cc(O)cc(O)c2)cc1` [Resveratrol], the “229E Inhibition rate” value came to 10.1%.

Consider `CC(=O)OCC[N+](C)(C)C` [Acetylcholine (chloride)], for which the “229E Inhibition rate” value (229E Inhibition rate, 24 h) is listed as 35.4%.

With `CCCCCCCCCCCCCCCCC(=O)OC` [Methyl heptadecanoate], the “229E Inhibition rate” value is recorded as 20.9%.

Take `C=C1C(=O)[C@]23[C@H](O)[C@H]1CC[C@H]2[C@@]12CO[C@]3(O)[C@@H](O)[C@@H]1C(C)(C)CC[C@@H]2O` [Oridonin]: the “229E Inhibition rate” value turned out to be 0%. Consider `NC(CCC(=O)O)C(=O)O` (racemic) [DL-Glutamic acid], for which the “229E Inhibition rate” value was determined as 6.9%.

On to `COc1ccc([C@@H]2OC[C@H]3[C@@H]2CO[C@@H]3c2ccc3c(c2)OCO3)cc1OC` [Fargesin], for which the “229E Inhibition rate” value worked out at 13.4%. With `O=C(O)C[C@@](O)(C(=O)O)[C@H](O)C(=O)O` [(-)-Hydroxycitric acid], the “229E Inhibition rate” value came out at 12.3%. On to `CC(=O)OC/C1=C\[C@H]2[C@@H](OC(=O)/C=C/c3ccccc3)[C@@H](C)C[C@]2(OC(C)=O)C(=O)/C(C)=C/[C@@H]2[C@H](CC1)C2(C)C` [Euphorbia factor L7a], for which the “229E Inhibition rate” value worked out at 90.9%.

As for `CC(=O)OCC1=C[C@@H]2OC(=O)C3=CO[C@@H](O[C@@H]4O[C@H](CO)[C@@H](O)[C@H](O)[C@H]4O)[C@H]1[C@@H]32` [Asperuloside], the “229E Inhibition rate” value was 8%. Still for that read-out and setting: under `O=C(CCc1ccc(O)cc1)c1c(O)cc(O)cc1O` [Phloretin] stands 35.3%. Still for that read-out and setting: the figure for `C[C@@H]1CC[C@@]2(OC1)O[C@H]1C[C@H]3[C@@H]4CC=C5C[C@@H](O[C@@H]6O[C@H](CO)[C@@H](O[C@@H]7O[C@H](CO)[C@@H](O)[C@H](O)[C@H]7O)[C@H](O)[C@H]6O[C@@H]6O[C@@H](C)[C@H](O)[C@@H](O)[C@H]6O)CC[C@]5(C)[C@H]4CC[C@]3(C)[C@H]1[C@@H]2C` [Deltonin] is 12.9%. The same measure, in the same setting: under `CC[C@H](C)[C@H](N)C1=N[C@H](C(=O)N[C@@H](CC(C)C)C(=O)N[C@H](CCC(=O)O)C(=O)N[C@H](C(=O)N[C@H]2CCCCNC(=O)[C@H](CC(N)=O)NC(=O)[C@@H](CC(=O)O)NC(=O)[C@H](Cc3cnc[nH]3)NC(=O)[C@@H](Cc3ccccc3)NC(=O)[C@H]([C@@H](C)CC)NC(=O)[C@@H](CCCN)NC2=O)[C@@H](C)CC)CS1` [Bacitracin] ({Ileψ(thiazoline)Cys}-L[dE]IK[dOrn]I[dF]H[dD]N; lactam 4-C) stands 6.9%; under `CC(C)=CCC[C@](C)(O)[C@H]1CC[C@]2(C)[C@@H]1[C@H](O)C[C@@H]1[C@@]3(C)C[C@@H](O)[C@H](O[C@@H]4O[C@H](CO)[C@@H](O)[C@H](O)[C@H]4O[C@@H]4O[C@H](CO)[C@@H](O)[C@H](O)[C@H]4O)C(C)(C)[C@@H]3CC[C@]12C` [Gypenoside L], 61.5%. For `O=C(c1ccccc1)C(O)c1ccccc1` (centres unmarked) [Benzoin], the “229E Inhibition rate” value was 34.2%. The same measure, in the same setting: under `Cc1c[nH]c2ccccc12` [Skatole] stands 10.2%; under `c1ccc(CSSCc2ccccc2)cc1` [Dibenzyl disulfide], 23.1%; under `CC(S)C(=O)NCC(=O)O` (centres unmarked) [Tiopronin], 17.9%. With `O=c1ccc2ccc(O[C@@H]3O[C@H](CO)[C@@H](O)[C@H](O)[C@H]3O)cc2o1` [Skimmin], the “229E Inhibition rate” value came to 17.9%. `Nc1ncnc2c1ncn2[C@@H]1O[C@H](COP(=O)(O)O)[C@@H](O)[C@H]1O` [Adenosine monophosphate]: the “229E Inhibition rate” value (229E Inhibition rate, 24 h) came out at 0%. On to `CC(C)CCCCCCCCCCCC(=O)O` [13-Methyltetradecanoic acid], for which the “229E Inhibition rate” value was 23.2%. For `O=C1CC(c2ccc(O)cc2)Oc2cc(O)cc(O)c21` (racemic) [(±)-Naringenin], the “229E Inhibition rate” value is 9.9%. The same measure, in the same setting: the figure for `COc1cc(/C=C/C(=O)OC(C)C)ccc1O` [Isopropyl ferulate] is 36.5%. On the same count and under the same terms, the figure for `O=C(/C=C/c1ccc(O[C@@H]2O[C@H](CO)[C@@H](O)[C@H](O)[C@H]2O[C@@H]2OC[C@](O)(CO)[C@H]2O)cc1)c1ccc(O)cc1O` [Isoliquiritin apioside] is 63.8%. With `Oc1cc(O)c2c(c1)O[C@H](c1cc(O)c(O)c(O)c1)[C@H](O)C2` [(-)-Epigallocatechin], the “229E Inhibition rate” value is 10.4%. In the case of `CC(=O)OC[C@H](N)C(=O)O` [O-Acetylserine], the “229E Inhibition rate” value is 42.6%. On the same count and under the same terms, under `O=C(c1ccc(O)cc1)c1c(O)cc(O)c([C@@H]2O[C@H](CO)[C@@H](O)[C@H](O)[C@H]2O)c1O` [Iriflophenone 3-C-glucoside] stands 18.4%; under `C[N+](C)(C)CCO` [L-Uridine], 18.9%.

As to `CC(C)(CO)[C@@H](O)C(=O)NCCC(=O)O` [D-Pantothenic acid], the “229E Inhibition rate” value (229E Inhibition rate, 24 h) turned out to be 20.7%. On to `C[C@H]1[C@H](C)CC[C@]2(CO)CC[C@]3(C)C(=CC[C@@H]4[C@@]5(C)CC[C@H](O)C(C)(C)[C@@H]5CC[C@]43C)[C@H]12` [Uvaol], for which the “229E Inhibition rate” value stood at 5.7%. Same read-out and setting: the figure for `NC(CCSSCCC(N)C(=O)O)C(=O)O` (centres unmarked) [4,4'-Disulfanediylbis(2-aminobutanoic acid)] is 7.3%. Take `OC[C@H]1O[C@H](O[C@H]2O[C@H](CO)[C@@H](O)[C@H](O)[C@H]2O)[C@H](O)[C@@H](O)[C@@H]1O` [D-(+)-Trehalose]: under “229E Inhibition rate, 24 h”, the “229E Inhibition rate” value is reported as 16.9%. On to `O=C(O)[C@H](O)c1ccccc1` [D-(-)-Mandelic acid], for which the “229E Inhibition rate” value came to 7.5%. On the same count and under the same terms, under `COc1ccc(C[C@H]2COC(=O)[C@@H]2Cc2ccc(O[C@@H]3O[C@H](CO)[C@@H](O)[C@H](O)[C@H]3O)c(OC)c2)cc1OC` [Arctiin] stands 4.1%. The same measure, in the same setting: the figure for `Cn1c(=O)[nH]c(=O)c2[nH]cnc21` [3-Methylxanthine] is 8.5%; for `COc1ccc(-c2cc(=O)c3c(O)c(OC)c(O[C@@H]4O[C@H](CO[C@@H]5O[C@@H](C)[C@H](O)[C@@H](O)[C@H]5O)[C@@H](O)[C@H](O)[C@H]4O)cc3o2)cc1` [Pectolinarin] it is 19%; for `CCO[C@@H]1O[C@H](C(=O)O)[C@@H](O)[C@H](O)[C@H]1O` [Ethyl glucuronide] it is 10.6%.

With `C[C@H](CCC(=O)NCC(=O)O)[C@H]1CC[C@H]2[C@@H]3[C@@H](O)C[C@@H]4C[C@H](O)CC[C@]4(C)[C@H]3CC[C@]12C` [Glycoursodeoxycholic acid], the “229E Inhibition rate” value is listed as 0%. The same measure, in the same setting: the figure for `CCCCCCCCCCCCCC(=O)O[C@@H]1[C@@H](C)[C@@]2(O)[C@@H](C=C(CO)C[C@]3(O)C(=O)C(C)=C[C@@H]23)[C@@H]2C(C)(C)[C@]12OC(C)=O` [Phorbol 12-myristate 13-acetate] is 2.8%; for `CO[C@H]1/C=C/O[C@@]2(C)Oc3c(C)c(O)c4c(O)c(cc(O)c4c3C2=O)NC(=O)/C(C)=C\C=C\[C@H](C)[C@H](O)[C@@H](C)[C@@H](O)[C@@H](C)[C@H](OC(C)=O)[C@@H]1C` [Rifamycin (sodium)] it is 7.5%. As for `C/C=C/c1ccc(OC)cc1` [Trans-Anethole], the “229E Inhibition rate” value (229E Inhibition rate, 24 h) is given as 7.8%. As to `CC(C)=CCc1c(O)ccc(C(=O)/C=C/c2ccc(O)cc2)c1O` [Isobavachalcone], the “229E Inhibition rate” value amounted to 7.1%. Regarding `O=C1C[C@@H](c2ccc(O[C@@H]3O[C@H](CO)[C@@H](O)[C@H](O)[C@H]3O)cc2)Oc2cc(O)cc(O)c21` [Choerospondin], the “229E Inhibition rate” value amounted to 13.9%. Take `C/C=C(/C)C(=O)Oc1c(OC)c(OC)cc2c1-c1c(cc(OC)c(OC)c1OC)C[C@](C)(O)[C@@H](C)C2` [Angeloylgomisin H]: the “229E Inhibition rate” value is 0%. As for `N[C@H]1C(O)O[C@H](CO)[C@@H](O)[C@@H]1O` (some centres unmarked) [Glucosamine (sulfate)], the “229E Inhibition rate” value (229E Inhibition rate, 24 h) is 43.7%. Take `O=C(O)[C@@H](O)[C@H](O)[C@H](O)[C@@H](O)C(=O)O` [Mucic acid]: the “229E Inhibition rate” value was 0%. On to `CCCCC/C=C/C(=O)CCc1ccc(O)c(OC)c1` [Shogaol], for which the “229E Inhibition rate” value is 27.7%.

Turning to `CC(C)=CCC12Oc3cc(O)ccc3C1(O)Oc1cc(O)c([C@H]3C=C(C)C[C@@H](c4ccc(O)cc4O)[C@@H]3C(=O)c3ccc(O)cc3O)c(O)c1C2=O` (some centres unmarked) [Sanggenon D], the “229E Inhibition rate” value stood at 23.4%. With `O=C(O)CCCCCCCCCCCCCCCCC(=O)O` [Octadecanedioic acid], the “229E Inhibition rate” value came to 18.5%. For the compound `Oc1cc(O)c2c(c1)O[C@H](c1ccc(O)c(O)c1)[C@H](O)C2` [(-)-Epicatechin], the “229E Inhibition rate” value was found to be 6.6%. Still for that read-out and setting: under `COC(=O)C1=CO[C@@H](O[C@@H]2O[C@H](CO)[C@@H](O)[C@H](O)[C@H]2O)[C@H]2[C@@H]1[C@H](O)C[C@]2(C)OC(C)=O` [Barlerin] stands 22.5%; under `COC(=O)CC(C)=O` [Methyl acetylacetate], 22.8%.

For the compound `O=C(/C=C/c1ccccc1)c1ccccc1` [Chalcone], for the setting “229E Inhibition rate, 24 h”, the “229E Inhibition rate” value is recorded as 18.8%.

Take `O=C(CCCCc1ccc2c(c1)OCO2)N1CCCCC1` [Tetrahydropiperine]: the “229E Inhibition rate” value was 0%.

Regarding `COc1cc2c(=O)c(-c3ccc(O)cc3)coc2cc1O` [Glycitein], the “229E Inhibition rate” value is listed as 11.9%. In the case of `O=C(OCc1ccccc1)c1ccccc1O` [Benzyl salicylate], the “229E Inhibition rate” value amounted to 24.5%. Still for that read-out and setting: the figure for `CC(CO)C(=O)O` (centres unmarked) [3-Hydroxyisobutyric acid] is 14.2%. As for `NCCCCNCCCN` [Spermidine], the “229E Inhibition rate” value (229E Inhibition rate, 24 h) was 8.1%. With `CC1(C)[C@@H]2CC[C@@]1(C)[C@H](O)C2` [Isoborneol], the “229E Inhibition rate” value is 29.1%. Turning to `CN1CC(=O)NC1=O` [N-Methylhydantoin], the “229E Inhibition rate” value was determined as 20%.
